Measured values taken from paper PMC2850320.
Results are given in words; binding and its absence hold for the method and conditions named. Binding seen in cells or lysates may run through a third protein. Some results given as binding are weak or reduced against the parent protein; the word gives no strength.

Amino acid sequences for entries named in this document (tags omitted). Residues count along the entry.
UniProt P45975, residues 1-152: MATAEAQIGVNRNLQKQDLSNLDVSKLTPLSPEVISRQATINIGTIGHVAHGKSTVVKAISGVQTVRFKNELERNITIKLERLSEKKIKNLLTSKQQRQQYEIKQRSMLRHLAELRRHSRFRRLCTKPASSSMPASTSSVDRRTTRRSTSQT
UniProt Q94517: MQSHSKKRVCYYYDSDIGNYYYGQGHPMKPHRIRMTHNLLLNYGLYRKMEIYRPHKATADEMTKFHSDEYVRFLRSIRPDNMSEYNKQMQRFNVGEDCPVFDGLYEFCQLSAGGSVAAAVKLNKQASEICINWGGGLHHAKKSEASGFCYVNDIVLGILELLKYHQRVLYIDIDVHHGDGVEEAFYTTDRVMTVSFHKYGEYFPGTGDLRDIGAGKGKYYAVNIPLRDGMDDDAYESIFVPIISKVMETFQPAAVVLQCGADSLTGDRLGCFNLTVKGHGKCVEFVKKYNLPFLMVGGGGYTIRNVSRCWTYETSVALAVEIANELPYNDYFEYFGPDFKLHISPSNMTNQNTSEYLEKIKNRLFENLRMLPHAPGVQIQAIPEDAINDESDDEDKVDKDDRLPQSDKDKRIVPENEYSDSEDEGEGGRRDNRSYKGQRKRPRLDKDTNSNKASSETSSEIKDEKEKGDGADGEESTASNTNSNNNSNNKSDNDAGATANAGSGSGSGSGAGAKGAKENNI

Molecular target: GST-SU(VAR)3–9NT (aa 1–152) (Drosophila) (UniProt P45975)
Assay: pull-down; GST-SU(VAR)3–9NT bound to a GSTrap FF column (parallel GST column); Drosophila 0–12 hour embryo nuclear extract loaded; wash 200 mM NaCl, 20 mM Tris-HCl pH 8.0, 1 mM EDTA, 0.5% Nonidet P-40; step elution 250, 500, 750 mM NaCl and reduced glutathione; Western blot of fractions; only the target purified

- binding: binds
Substance: RPD3 (endogenous, Drosophila embryo nuclear extract) (from UniProt Q94517 1-521) (enzyme)
